Measurements as given in the supplement of paper PMC10735217.
Where a name gives a salt, the structure may show the parent alone. The list shows a part of the results. Repeats in this data set agree poorly, so a single value says little.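 The human kidney-derived cells carry a stably integrated construct of eight TEAD-binding elements driving luciferase, read by luminescence in a drug-repurposing library screen. A compound counts as a hit when its signal is more than five robust Z scores above the plate mean.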

Test system: HEK293A TEAD-LUC reporter
Test: TEAD-luciferase reporter activity (YAP activation), robust Z score vs plate; higher = stronger YAP/TEAD activation
Conditions: 24 h

SMILES | TEAD-luciferase reporter activity (compound concentration: 200 nM) | TEAD-luciferase reporter activity (compound concentration: 2 uM) | TEAD-luciferase reporter activity (compound concentration: 10 uM)
N#Cc1ccc(C=O)cn1 | inactive: -0.313 | inactive: -0.928 | inactive: 0.644
COC(=O)c1ccc(O)c(N)c1 | inactive: 0.22 | inactive: -2.18 | inactive: -1.06
O=C(CCCCCl)NNC(=O)N1Cc2ccccc2Oc2ccc(Cl)cc21 [pinadoline] | inactive: -0.653 | inactive: -1.23 | inactive: 3.23
CC(=O)N1Cc2ccccc2CC2(CCCCN2CC2CCCC2)C1 (configuration not stated) | inactive: 0.0335 | – | inactive: -0.572
c1ccc(-c2ncc3cc(-n4ccnc4)ccc3n2)cc1 | inactive: 2.01 | inactive: -0.389 | inactive: 2.65
CC(CN(C)C)C(C)(O)Cc1ccc(Cl)cc1 (configuration not stated) | inactive: -0.771 | inactive: -0.742 | inactive: 3.07
COc1ccc(Cc2c(O[C@@H]3O[C@H](CO)[C@@H](F)[C@H](O)[C@H]3O)n[nH]c2C(F)(F)F)cc1 | inactive: -2.12 | inactive: 0.738 | inactive: -0.533
Cc1ccnc2c1CCCC2C(N)=S (configuration not stated) [isotiquimide] | inactive: 1.58 | inactive: -0.373 | inactive: -1.17
CS(=O)(=O)c1cc(C(=O)N=C(N)N)ccc1N1CCN(C(=O)c2ccco2)CC1 | inactive: -1.04 | inactive: -1.27 | inactive: -0.571
Cc1ccc2oc(NC(CC3CCCCC3)c3ccccn3)nc2c1 (configuration not stated) [ontazolast] | inactive: 1.47 | inactive: -0.189 | inactive: 0.0874
CCC1(C)CC(=O)NC1=O (configuration not stated) [Ethosuximide] | – | inactive: -1.71 | –
CCC1(C)CC(=O)NC1=O (configuration not stated) | inactive: -0.0572 | – | inactive: 1.59
CCCCC(=O)Oc1ccc2c(c1)CC[C@@H]1[C@@H]2CC[C@]2(C)[C@@H](O)CC[C@@H]12 | inactive: -0.59 | inactive: 0.625 | inactive: -1.02
O=C(c1ccc(F)cc1)N1CCC(N2CCCNC2=O)CC1 | inactive: 2.23 | – | inactive: 1.84
CC(C)(Oc1ccc(Cl)cc1)C(=O)OCc1cccnc1 | inactive: -1.92 | inactive: -0.788 | inactive: -1.49
CC1(C)C(=O)N(C(=O)NCC2CCN(CC3(O)CCOCC3)CC2)c2cc(F)ccc21 | inactive: -1.14 | active: 6.59 | inactive: -0.0833
CCCC(=O)OC[C@H]1O[C@H](O[C@H]2O[C@H](COC(=O)CCC)[C@@H](O)[C@H](O)[C@H]2O)[C@H](O)[C@@H](O)[C@@H]1O | inactive: -0.961 | inactive: -1.64 | inactive: -1.26
CCOC/C=C/c1ccc(-c2nc(-c3ccc(NC(C)C)cc3)c(-c3ccc(NC(C)C)cc3)[nH]2)cc1 | inactive: -1.55 | inactive: 0.0943 | inactive: -1.32
O=C(Nc1ccc(Oc2ncccn2)cc1C(=O)O)c1ccc(Cl)cc1Cl | inactive: -0.296 | inactive: -0.434 | inactive: -0.556
COC(=O)Nc1nc2ccc(C(=O)c3ccc4nc(NC(=O)OC)[nH]c4c3)cc2[nH]1 | inactive: -0.844 | inactive: 0.0374 | inactive: -0.115

SMILES | TEAD-luciferase reporter activity (compound concentration: 200 nM) | TEAD-luciferase reporter activity (compound concentration: 2 uM) | TEAD-luciferase reporter activity (compound concentration: 10 uM)
COc1cccc(-c2ccc(CN3CCCC(NC(=O)c4ccccc4)C3)cc2)c1 (configuration not stated) | inactive: 1.15 | – | inactive: 0.0421
C[C@@H](NC(=O)/C=C/c1ccc(C(F)(F)F)cc1)c1cc(F)c(NS(C)(=O)=O)c(F)c1 | inactive: -0.876 | inactive: -0.729 | inactive: 2.08
OC[C@H]1O[C@@H](n2cnc3c(N[C@@H]4CCOC4)ncnc32)[C@H](O)[C@@H]1O [Tecadenoson] | inactive: 0.498 | – | inactive: -0.198
O=c1[nH]c(=O)n(COCCO)cc1Cc1ccccc1 | inactive: -0.756 | inactive: -0.317 | inactive: -0.56
O=C1CCC(C(=O)N2CSCC2C(=O)O)N1 (configuration not stated) [pidotimod] | inactive: -0.673 | inactive: -0.486 | inactive: 0.219
CC(C)(C(O)(Cn1cncn1)c1ccc(C(F)(F)F)cc1)S(C)(=O)=O (configuration not stated) | inactive: 0.0686 | inactive: -1.02 | inactive: -0.803
CCCCc1ccc(Nc2ncccc2C(=O)O)cc1 | inactive: 0.801 | inactive: -0.859 | inactive: 0.778
c1csc(-c2ccc3c(c2)OCO3)n1 | inactive: -0.191 | inactive: -1.58 | inactive: 0.804
O=C(O)C1CSC(c2ccccc2O)=N1 (configuration not stated) | inactive: -2.31 | inactive: 0.528 | inactive: -1.4
C[N+](C)(C)CCCCOC(=O)C12CC3CC(CC(C3)C1)C2 | inactive: 4.58 | inactive: -0.121 | inactive: -0.157
CC1CCCCC1NC(=O)c1ccc2nccn2c1 (configuration not stated) | active: 5.53 | – | inactive: 1.09
CC1(C)CC(=O)c2c(C(F)(F)F)nn(-c3ccc(C(N)=O)c(N[C@H]4CC[C@H](O)CC4)c3)c2C1 | inactive: 1.27 | inactive: -2 | inactive: -3.74
Cc1cc(C)nc(O[C@H](C(=O)O)C(C)(c2ccccc2)c2ccccc2)n1 | inactive: -0.656 | inactive: -1.25 | inactive: 1.33
NCCCCN | inactive: -0.62 | inactive: 1.48 | inactive: -0.515
Fc1ccc(-n2cc(CCCCN3CCC4(CC3)OCc3ccccc34)c3ccccc32)cc1 [Siramesine] | inactive: 0.437 | inactive: 0.184 | active: 12.3
O=C1CCC(c2ccc(Nc3ccncc3)cc2)=NN1 | inactive: -0.0463 | inactive: -0.909 | inactive: -0.00111
O=C1C=Cc2cc(Br)ccc2C1=O [Bonaphthone] | inactive: 1.04 | inactive: -0.189 | inactive: -0.0432
O=C1N=C2SCCN2C(=O)C1Cc1ccc(Cl)cc1 (configuration not stated) [nuclomedone] | inactive: -0.603 | inactive: -2.17 | inactive: 0.841
OC(CCN1CCCCC1)(c1ccccc1)C1CCCC1 (configuration not stated) | inactive: -1.7 | inactive: -1.01 | inactive: 1.07
COc1nccnc1NS(=O)(=O)c1cccc(Cl)c1Cl | inactive: -2.32 | inactive: 0.025 | inactive: -1.45

SMILES | TEAD-luciferase reporter activity (compound concentration: 200 nM) | TEAD-luciferase reporter activity (compound concentration: 2 uM) | TEAD-luciferase reporter activity (compound concentration: 10 uM)
Cc1ncccc1C(=O)N1CCN(S(=O)(=O)c2ccc(C(F)(F)F)cc2)C[C@@H]1C | inactive: -0.257 | inactive: -0.3 | inactive: -0.148
Cn1cc(S(C)=O)c(=O)c2ccc(F)cc21 (configuration not stated) [flosequinan] | inactive: 2.81 | inactive: 2.43 | inactive: -0.751
COc1ccc(CCC(C)NCC(O)c2ccc(O)c(S(C)=O)c2)cc1 (configuration not stated) [Sulfinalol] | inactive: -0.981 | inactive: -1.5 | inactive: -0.14
O=C(O)c1ccc(/C=C/S(=O)(=O)Cc2ccc(Cl)cc2)cc1 | – | inactive: 0.141 | –
O=C(O)c1ccc(/C=C/S(=O)(=O)Cc2ccc(Cl)cc2)cc1 [Recilisib] | inactive: 1.41 | – | inactive: -0.227
Oc1ccc2ccc(OCCCCN3CCN(c4cccc5sccc45)CC3)cc2n1 [brexpiprazole] | inactive: 3.76 | inactive: -0.415 | inactive: 0.865
COc1ccc2cc(C(C)C3c4cc(OC)c(OC)cc4CCN3C(=O)CN3CCCCC3)ccc2c1 (configuration not stated) | inactive: 1.65 | inactive: 0.237 | inactive: -0.869
OCc1cc(Cl)c(OCc2ccc(Cl)cc2)c(Cl)c1 | inactive: -0.991 | inactive: 1.05 | inactive: 2.18
CCCCCC[C@@H](CCC)C(=O)O [Arundic acid] | inactive: -0.85 | inactive: -1.39 | inactive: 1.19
O=C[O-] | inactive: -0.484 | inactive: -0.18 | inactive: -0.273
NC1CCN(c2c(F)cc3c(=O)c(C(=O)O)cn(C4CC4)c3c2Cl)C1 (configuration not stated) [Clinafloxacin] | – | inactive: -0.735 | –
NC1CCN(c2c(F)cc3c(=O)c(C(=O)O)cn(C4CC4)c3c2Cl)C1 (configuration not stated) [Clinafloxacin Hydrochloride] | inactive: 1.64 | – | inactive: 0.568
CN(Cc1cccc(C(F)(F)F)c1)C(=O)C1CC1 | inactive: -1.43 | – | active: 9.42
O=C(Nc1ccc(C(F)(F)F)cn1)N1CC=C(c2ncc([C@H](O)CO)cc2Cl)CC1 | inactive: -0.411 | inactive: 0.704 | inactive: 0.832
CO[C@@]1(NC(=O)Cc2cccs2)C(=O)N2C(C(=O)O)=C(COC(N)=O)CS[C@@H]21 [cefoxitin sodium] | inactive: -0.98 | inactive: -0.408 | inactive: -1.41
CC(C)(C)c1cc(C(O)CCC2CCNCC2)c2ccccc2n1 (configuration not stated) | inactive: 0.855 | inactive: 0.0522 | inactive: 0.18
Nc1ccncc1N [amifampridine phosphate] | inactive: 0.317 | inactive: -2.41 | active: 6.25
COC(=O)[C@H]1[C@H]2C[C@@H]3c4[nH]c5ccccc5c4CCN3C[C@H]2C[C@@H](OC(=O)c2cc(OC)c(OC)c(OC)c2)[C@@H]1OC | – | inactive: -1.35 | –
COC(=O)[C@H]1[C@H]2C[C@@H]3c4[nH]c5ccccc5c4CCN3C[C@H]2C[C@@H](OC(=O)c2cc(OC)c(OC)c(OC)c2)[C@@H]1OC [Deserpidine] | inactive: -0.213 | – | inactive: -0.0751
CCCCOC(=O)[C@@H](CCC(N)=O)NC(=O)[C@H](C)NC(=O)[C@@H](C)O[C@H]1[C@H](O)[C@@H](CO)OC(O)[C@@H]1NC(C)=O (some centres not stated) [Murabutide] | inactive: -1.54 | inactive: 0.582 | inactive: 0.0509

Just TEAD-luciferase reporter activity (compound concentration: 2 uM) and TEAD-luciferase reporter activity (compound concentration: 200 nM), for some of the entries so far:
SMILES,TEAD-luciferase reporter activity (compound concentration: 2 uM),TEAD-luciferase reporter activity (compound concentration: 200 nM)
O=C(Nc1ccc(Oc2ncccn2)cc1C(=O)O)c1ccc(Cl)cc1Cl,inactive: -0.434,inactive: -0.296
COC(=O)Nc1nc2ccc(C(=O)c3ccc4nc(NC(=O)OC)[nH]c4c3)cc2[nH]1,inactive: 0.0374,inactive: -0.844
COc1cccc(-c2ccc(CN3CCCC(NC(=O)c4ccccc4)C3)cc2)c1 (configuration not stated),–,inactive: 1.15
